Results are given in words; binding and its absence hold for the method and conditions named. Binding seen in cells or lysates may run through a third protein. Some binding calls cover weakened binding; strength is not graded here.

The chains behind the UniProt entries cited, without tags or fusion partners.
UniProt P32120: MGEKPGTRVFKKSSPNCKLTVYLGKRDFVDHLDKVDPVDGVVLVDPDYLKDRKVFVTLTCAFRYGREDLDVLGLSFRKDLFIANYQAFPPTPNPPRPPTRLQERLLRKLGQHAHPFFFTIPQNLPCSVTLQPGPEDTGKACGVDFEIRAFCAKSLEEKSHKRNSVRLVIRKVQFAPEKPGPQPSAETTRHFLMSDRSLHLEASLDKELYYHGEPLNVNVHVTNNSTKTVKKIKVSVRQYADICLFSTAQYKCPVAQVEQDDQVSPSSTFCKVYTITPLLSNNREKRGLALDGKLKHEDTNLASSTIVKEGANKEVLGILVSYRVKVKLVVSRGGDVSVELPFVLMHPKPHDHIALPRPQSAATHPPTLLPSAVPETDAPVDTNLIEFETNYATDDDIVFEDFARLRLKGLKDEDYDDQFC

The target in the test is M3R-YFP (muscarinic acetylcholine receptor M3 with YFP fused C-terminally) (UniProt P20309). As to the kind of experiment: FRET or BRET; single-cell FRET in HEK293T cells transfected with M3R-YFP, GRK2 and arrestin3-mTurquoise; 30 s stimulation with saturating agonist, with or without prestimulation by ACh; also without GRK2 overexpression or with the kinase-deficient GRK2 K220R (recruitment decreased). A general note: BRET reads energy transfer from a luciferase to a nearby fluorophore.

For “arrestin3-mTurquoise (arrestin3 with mTurquoise fused to the C-terminus) (from UniProt P32120 1-420)”, the binding entry is “binds”.
